Source: patent publication US9757428B2, “Designed peptides for tight junction barrier modulation” (University of Rochester, priority 2013, dated 2017)
For some assays here: The name of at least one read-out is uncertain. Some results were stated once for a whole list of compounds, not compound by compound.

What was measured:
[1] = Surfactant screening for solubilization of peptides; assay type: physicochemical; conditions: with 0.12% Pluronic F-127
[2] = Critical (threshold) concentration for self-assembly, from circular dichroism; assay type: physicochemical; conditions: Pluronic F-127 solubilized, diluted into buffer; believed from CD detection limit

Row | Substance | solubilization and dilution into buffer or cell culture media [1] | threshold (critical) concentration for structure formation [2] [µM]
1 | H-SILTGVSTLDQSLKQLSNFSQAVSTQSSR-NH2 [Peptide 2a] | without visible precipitation | –
2 | R-SILTGVSTLDQSLKQLSNFSQAVSTQSSR-NH2 (C-terminal amide; optional N-terminal biotin-propargyl glycine; Peptide for Tight Junction Barrier Modulation) [Peptide 2, R = H or biotin-N-propargyl glycine] | – | < 1
